This test has as its system HEK293A TEAD-LUC reporter. Put plainly: TEAD-luciferase reporter activity (YAP activation), robust Z score vs plate; higher = stronger YAP/TEAD activation. The settings on record: 24 h. In general terms: Reporter assays use an easily measured gene product as a stand-in for the process of interest.

Structures are written as SMILES. The list shows a part of the results. Single values are uncertain here, since repeats match poorly.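 Human kidney-derived cells stably carry a construct in which eight TEAD-binding elements drive luciferase, measured by luminescence in a drug-repurposing library screen. A hit is any compound whose signal exceeds the plate mean by more than five robust Z scores.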

On to `COC(CN1CCN(CC(O)C(OC)c2ccccc2)CC1)c1ccccc1` (centres undefined), for which the TEAD-luciferase reporter activity (compound concentration: 200 nM) is inactive: -0.616, the TEAD-luciferase reporter activity (compound concentration: 2 uM) was inactive: -0.943 and the TEAD-luciferase reporter activity (compound concentration: 10 uM) was inactive: 1.34.

In the case of `C=CCC1CN(C)CCC1(OC(=O)CC)c1ccccc1` (centres undefined), the TEAD-luciferase reporter activity (compound concentration: 200 nM) was inactive: -0.974, the TEAD-luciferase reporter activity (compound concentration: 2 uM) is inactive: -1.96 and the TEAD-luciferase reporter activity (compound concentration: 10 uM) was inactive: 0.283.

For the compound `c1ccc(C2CCNCC2)cc1`, the TEAD-luciferase reporter activity was inactive: -1.72 (compound concentration: 200 nM), inactive: 1.79 (compound concentration: 2 uM) and inactive: -1.35 (compound concentration: 10 uM).

For `C[C@]12CCC(=O)C(=O)C1CC[C@@H]1[C@@H]2CC[C@]2(C)C(=O)CC[C@@H]12` (some centres undefined) [formestane], the TEAD-luciferase reporter activity by setting is: (compound concentration: 200 nM) inactive: 0.588; (compound concentration: 2 uM) inactive: -0.483; (compound concentration: 10 uM) inactive: 1.44.

Turning to `C#CCN(C)[C@@H](C)Cc1ccc(F)cc1` [parafluoro-selegiline], the TEAD-luciferase reporter activity (compound concentration: 200 nM) is inactive: -0.353, the TEAD-luciferase reporter activity (compound concentration: 2 uM) was inactive: -0.329 and the TEAD-luciferase reporter activity (compound concentration: 10 uM) was inactive: 2.05.

For `CN1C(=O)[C@@H](NC(=O)c2cc3ccccc3[nH]2)N=C(c2ccccc2)c2ccccc21` [Devazepide], the TEAD-luciferase reporter activity by setting is: (compound concentration: 200 nM) inactive: 0.134; (compound concentration: 2 uM) inactive: -1.01; (compound concentration: 10 uM) inactive: -1.28.

Regarding `CCCC(C)(C)c1ccc2c(c1)OC(C)(C)[C@@H]1CC=C(C)C[C@@H]21`, the TEAD-luciferase reporter activity by setting is: (compound concentration: 200 nM) inactive: -1.28; (compound concentration: 2 uM) inactive: -1.15; (compound concentration: 10 uM) inactive: 2.19.

Regarding `C=CCC1(C2C=CCC2)C(=O)NC(=O)NC1=O` (centres undefined), the TEAD-luciferase reporter activity (compound concentration: 200 nM) was inactive: -1.15, the TEAD-luciferase reporter activity (compound concentration: 2 uM) was inactive: 0.953 and the TEAD-luciferase reporter activity (compound concentration: 10 uM) was inactive: -0.415.

Take `S=C=NCCc1ccccc1` [Phenethyl isothiocyanate]: the TEAD-luciferase reporter activity is inactive: 1.45 (compound concentration: 200 nM), inactive: -0.514 (compound concentration: 2 uM) and inactive: -1.89 (compound concentration: 10 uM).

On to `CC(C)[C@]12O[C@H]1[C@@H]1O[C@]13[C@]1(O[C@H]1C[C@H]1C4=C(CC[C@@]13C)C(=O)OC4)[C@@H]2OC(=O)CCC(=O)O` [Omtriptolide], for which the TEAD-luciferase reporter activity (compound concentration: 200 nM) is inactive: -0.635, the TEAD-luciferase reporter activity (compound concentration: 2 uM) is inactive: -2.4 and the TEAD-luciferase reporter activity (compound concentration: 10 uM) is inactive: -0.83.

In the case of `C[C@@H](Cc1ccsc1)NC(=O)NC[C@H](Cc1ccc(O)cc1)N(C)C`, the TEAD-luciferase reporter activity reads like this: (compound concentration: 200 nM) inactive: -0.215; (compound concentration: 2 uM) inactive: -1.71; (compound concentration: 10 uM) inactive: -0.319.

As to `CC(C)C[C@@H]1NC(=O)[C@H](CCCCN)NC(=O)[C@H](Cc2ccc(O)cc2)NC(=O)CNC(=O)[C@@H]2CSSC[C@H](NC1=O)C(=O)N[C@@H](Cc1cnc[nH]1)C(=O)N1C[C@H](O)C[C@H]1C(=O)N[C@H](C(=O)O)CSSC[C@H](NC(=O)[C@@H](NC(=O)CNC(=O)[C@@H]1CCC(=O)N1)C(C)C)C(=O)N2`, the TEAD-luciferase reporter activity reads like this: (compound concentration: 200 nM) inactive: 0.0816; (compound concentration: 2 uM) inactive: 0.472; (compound concentration: 10 uM) active: 5.78.

Consider `CCN(CC)CCOC(=O)C(C)(c1ccccc1)c1ccccc1`, for which the TEAD-luciferase reporter activity by setting is: (compound concentration: 200 nM) inactive: -1.09; (compound concentration: 2 uM) inactive: -0.809; (compound concentration: 10 uM) inactive: 4.8.

For `C=CCC1(CC(C)C)C(=O)NC(=S)NC1=O`, the TEAD-luciferase reporter activity runs as follows: (compound concentration: 200 nM) inactive: -1.61; (compound concentration: 2 uM) inactive: 0.186; (compound concentration: 10 uM) inactive: 0.48.

As to `NCCCNCCSP(=O)(O)O` [amifostine], the TEAD-luciferase reporter activity by setting is: (compound concentration: 200 nM) inactive: 0.237; (compound concentration: 10 uM) inactive: -0.276.

As for `CS(=O)CC[C@@H](NC(=O)[C@@H](N)Cc1ccc(O)cc1)C(=O)NCC(=O)N[C@@H](Cc1ccc([N+](=O)[O-])cc1)C(=O)N1CCC[C@H]1C(N)=O` (some centres undefined) [nifalatide], the TEAD-luciferase reporter activity was inactive: 0.652 (compound concentration: 200 nM), inactive: -0.8 (compound concentration: 2 uM) and inactive: 0.0169 (compound concentration: 10 uM).

As for `Cc1ncc(OC[C@@]2(c3cccc(F)c3)C[C@H]2C(=O)Nc2ccc(F)cn2)c(C)n1` [Lemborexant], the TEAD-luciferase reporter activity (compound concentration: 200 nM) was inactive: -1.8, the TEAD-luciferase reporter activity (compound concentration: 2 uM) is inactive: -1.25 and the TEAD-luciferase reporter activity (compound concentration: 10 uM) was inactive: 3.18.

In the case of `CN(C(=O)CNC(=O)[C@@H](N)CCCCN)c1ccc(Cl)cc1C(=O)c1ccccc1`, the TEAD-luciferase reporter activity by setting is: (compound concentration: 200 nM) inactive: -1.25; (compound concentration: 2 uM) inactive: 1.14; (compound concentration: 10 uM) inactive: 1.62.

Turning to `CCC1(CC)C(=O)CCNC1=O`, the TEAD-luciferase reporter activity is inactive: -0.93 (compound concentration: 200 nM), inactive: -0.915 (compound concentration: 2 uM) and inactive: -0.599 (compound concentration: 10 uM).

`NCCS[As](SCCN)c1ccc(Nc2nc(N)nc(N)n2)cc1`: the TEAD-luciferase reporter activity reads like this: (compound concentration: 200 nM) inactive: -0.435; (compound concentration: 2 uM) inactive: 1.39; (compound concentration: 10 uM) inactive: 1.18.

For `CCCCNC(=O)n1c(NC(=O)OC)nc2ccccc21`, the TEAD-luciferase reporter activity by setting is: (compound concentration: 200 nM) inactive: -0.0459; (compound concentration: 2 uM) inactive: -0.909; (compound concentration: 10 uM) inactive: -0.354.

Regarding `CCCN(CCC)C(=O)Cc1c(-c2ccc(Cl)cc2)nc2ccc(Cl)cn12` [alpidem], the TEAD-luciferase reporter activity runs as follows: (compound concentration: 200 nM) inactive: 0.852; (compound concentration: 2 uM) inactive: -2.17; (compound concentration: 10 uM) inactive: 2.87.

Regarding `CC1COC(O)(c2cc(F)cc(F)c2)C(C)N1` (centres undefined), the TEAD-luciferase reporter activity (compound concentration: 200 nM) was inactive: -1.45, the TEAD-luciferase reporter activity (compound concentration: 2 uM) was inactive: -1.83 and the TEAD-luciferase reporter activity (compound concentration: 10 uM) is inactive: 0.66.

Take `Oc1ccc([C@H]2CC[C@]3(CC2)OOC2(O3)C3CC4CC(C3)CC2C4)cc1` (some centres undefined): the TEAD-luciferase reporter activity runs as follows: (compound concentration: 200 nM) inactive: 2.69; (compound concentration: 10 uM) inactive: -1.24.

As to `CCCN[C@@H]1Cc2cccc3[nH]c(=O)n(c23)C1`, the TEAD-luciferase reporter activity by setting is: (compound concentration: 200 nM) inactive: 0.141; (compound concentration: 2 uM) inactive: -0.323; (compound concentration: 10 uM) inactive: 0.267.

Turning to `Cc1cc(C)c(CC2=NCCN2)c(C)c1`, the TEAD-luciferase reporter activity runs as follows: (compound concentration: 200 nM) inactive: -1.2; (compound concentration: 2 uM) inactive: -0.292; (compound concentration: 10 uM) inactive: -1.71.

As for `O=C(O)C1CCN1C12CC3CC(CC(C3)C1)C2` (centres undefined), the TEAD-luciferase reporter activity reads like this: (compound concentration: 200 nM) inactive: 2.48; (compound concentration: 2 uM) inactive: -1.32; (compound concentration: 10 uM) inactive: 4.12.

The record behind these values is the supplement of paper PMC10735217.
